The supplement of paper PMC3334620
In all, about 33,000 sequences were measured (“E-score (-0.5 to 0.5)”: median about -8e-05, highest 2% from about 0.23 on). Some of the results follow.

target: T1, Nrg2 (UniProt P38082); assay: PBM E-score (8-mer binding enrichment) (E-score (-0.5 to 0.5)); higher = stronger / more preferred TF binding; conditions: protein concentration: 100 nM; construct: GST-full length
T1 sequence: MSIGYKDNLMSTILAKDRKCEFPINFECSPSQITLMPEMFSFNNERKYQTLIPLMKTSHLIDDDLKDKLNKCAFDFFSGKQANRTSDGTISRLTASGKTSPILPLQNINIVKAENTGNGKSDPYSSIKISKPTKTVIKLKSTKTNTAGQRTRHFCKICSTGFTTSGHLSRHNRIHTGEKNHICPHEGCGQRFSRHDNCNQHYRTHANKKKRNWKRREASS
How it was run: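 For each ungapped eight-base word taken together with its reverse complement, the Universal PBM Analysis Suite assigned an E-score. Binding data came from GST-tagged yeast transcription factors, applied at about 100-200 nM, on universal all-10-mer Agilent arrays made double-stranded by primer extension. Fluorescent anti-GST marked bound protein, and scans were normalised with masliner.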

Row | Sequence | PBM E-score
1 | ACGCTGCA | -0.151
2 | GCTCTCAC | -0.127
3 | CCTCACCC | -0.112
4 | AAGCTCAT | 0.0806
5 | AGGATCCA | -0.094
6 | AACGCTAC | -0.119
7 | AACCTCTT | 0.0815
8 | ATATCGTC | 0.0583
9 | GCAAATCA | 0.137
10 | CTCCGCTA | -0.0936
11 | AAGTCCGC | -0.00618
12 | CGCCTGCC | -0.168
13 | GCTACCGA | -0.156
14 | AGGTCCGG | -0.173
15 | ACAGAACG | -0.0392
16 | GAAAGTTC | -0.214
17 | GAAGATTC | 0.0833
18 | AAGAGTTC | 0.00919
19 | GATCGAAA | 0.108
20 | TCCTTCGA | -0.115
21 | ATAAGGTA | 0.0215
22 | GTACTCTA | 0.0349
23 | GCTGCCGA | -0.0879
24 | CCGCCTAA | -0.0285
25 | GAACACTC | 0.0516

Row | Sequence | PBM E-score
26 | CTTTCGCC | -0.195
27 | AGTAGGTA | -0.00752
28 | ACAACGCT | -0.0257
29 | TAACACAA | -0.0353
30 | AGACAAGA | 0.181
31 | AACGTCCT | 0.0158
32 | AATTGCGA | 0.0736
33 | CGGTAGAC | 0.0168
34 | AATATCAA | 0.0718
35 | ACAGGTCC | 0.0426
36 | AGCTTGGA | 0.058
37 | ATCCGGAC | -0.16
38 | GATAGAAC | 0.0331
39 | ATTGCTGA | 0.118
40 | AGATCTTC | -0.0494
41 | ATTGGTTG | 0.168
42 | AAGAACGC | 0.0465
43 | CTCGAGCC | -0.0275
44 | CCCGGGGA | -0.102
45 | ATAAAAAT | 0.122
46 | CTGTAATA | 0.119
47 | ATTTACAC | 0.00228
48 | CCCCATTA | -0.0614
49 | GAATGTAC | 0.0946
50 | CCGGCCAG | 0.0298

Row | Sequence | PBM E-score
51 | CAATGTAC | -0.186
52 | GGATCAAC | 0.0726
53 | GATGACTA | -0.0735
54 | ATACTAGC | 0.167
55 | AGCGGACT | -0.21
56 | AACGTTAA | -0.0543
57 | ATTAGGAA | 0.0529
58 | GATTTCCC | 0.0108
59 | CGGCTAAC | 0.0262
60 | CTTTAGAC | -0.0193
61 | GTCTATTA | 0.0378
62 | CACCCGTG | -0.0637
63 | CGTGGTTC | 0.0979
64 | AATTCCCC | 0.0175
65 | TCCTGTCA | -0.0951
66 | CTAGGAAG | -0.127
67 | AAGTTCGC | 0.0698
68 | ACTGCCCC | 0.0792
69 | GGAATGAA | 0.19
70 | AAGTACAT | 0.0528
71 | TCAGTAGA | -0.0922
72 | AGTTCAAA | 0.0881
73 | AACCCTAT | 0.195
74 | AGGCCTAG | -0.17
75 | CAGAATAA | 0.158

Row | Sequence | PBM E-score
76 | CTGCAGAC | 0.00549
77 | ATAAATAG | 0.0238
78 | GCATTATA | 0.00208
79 | CCAGATAC | -0.0175
80 | GCTCAATA | 0.196
81 | CAATCTAC | -0.101
82 | GGTGCGAC | -0.0718
83 | CTGAGTAC | -0.0335
84 | GCTCGGCA | 0.0294
85 | CGTCTAAA | -0.142
86 | CCGGCATA | -0.188
87 | AACAATGC | 0.181
88 | TCTCCACA | -0.0518
89 | CACTGCGG | 0.0758
90 | CAGAGGCC | -0.207
91 | GTATGGAC | 0.0505
92 | GGATATCA | 0.0217
93 | GCGCACGA | 0.238
94 | AAGGACCC | 0.146
95 | AAGACCCT | 0.291
96 | ACGAGATA | -0.00105
97 | GAAAATCC | -0.035
98 | TCTACTCA | -0.0218
99 | AACTCCCC | 0.0612
100 | CCTATTCA | -0.0401

Row | Sequence | PBM E-score
101 | CACTTGGC | -0.0246
102 | CCGTAATC | 0.0439
103 | CCGTCGTA | -0.0709
104 | CCTTAGAG | -0.305
105 | CGAACTCG | 0.0595
106 | AGGCGATG | -0.138
107 | GAGAGGAC | -0.109
108 | CCTCAGCA | -0.0245
109 | ACTCGCAG | 0.0701
110 | TTATAAAA | 0.181
111 | GAACTGTC | 0.0447
112 | AAGCTCCC | -0.16
113 | GGTTATGA | -0.0752
114 | CAGGCTCA | -0.0296
115 | GGTGATCA | -0.0383
116 | AGCGCCGG | -0.164
117 | AACCAGTT | 0.178
118 | GGCTAAGA | -0.141
119 | TACTGAAA | 0.242
120 | AGACATTG | -0.0811
121 | ACGGAGTA | -0.158
122 | GCCCCGAC | -0.121
123 | CGTACACC | -0.0188
124 | ACGCGCGT | 0.17
125 | AAAGGGCT | -0.187

Quoted from the listing:
PBM E-score with CCGTCGTA is entered as -0.0709
PBM E-score with AAAGGGCT is entered as -0.187
PBM E-score with AAGCTCCC is entered as -0.16
PBM E-score with AGACATTG is entered as -0.0811
PBM E-score with AGCGCCGG is entered as -0.164
PBM E-score with GCCCCGAC is entered as -0.121
PBM E-score with GGTGATCA is entered as -0.0383

(listing goes on)

Row | Sequence | PBM E-score
126 | AGCCTCGG | -0.172
127 | ACGTACAC | -0.0301
128 | AGATGTCA | 0.0439
129 | TATTATAA | 0.0806
130 | CCAAAACG | 0.0677
131 | AAGAGCCC | -0.17
132 | CCACAGGA | -0.082
133 | TACACCAA | 0.0384
134 | AATAGTCT | -0.0972
135 | AGGCCACT | -0.0372
136 | TCGCAGAA | -0.114
137 | ACAGTTTC | 0.259
138 | AACTGCCC | 0.0668
139 | CCCCAGCA | 0.122
140 | GCAGTTGA | 0.0825
141 | ATGTCGGC | 0.00767
142 | TACCAAGA | 0.105
143 | CACCCGAC | -0.0642
144 | CTGGCGTC | -0.104
145 | AAGCGCCA | -0.287
146 | CCTTTTCA | 0.0701
147 | ATTCCCTA | 0.108
148 | AGTCCAAA | 0.0189
149 | ATTGTTGC | -0.0433
150 | ACTTCAAT | 0.081

Row | Sequence | PBM E-score
151 | AGCTACTC | -0.117
152 | CCACGACC | -0.101
153 | GCTACATA | -0.0565
154 | CGGTCATC | -0.0794
155 | AGCCACTA | -0.00796
156 | AGCTCGGC | 0.0788
157 | AAAATGGG | -0.0403
158 | CACATTAC | 0.111
159 | CACTATAG | -0.00981
160 | GAGAAGGA | -0.0474
161 | ATATCCTA | 0.102
162 | CTCTTCTA | -0.192
163 | ACGTGCGG | -0.00691
164 | CCCCACGG | -0.0969
165 | GGATTTAC | 0.0984
166 | CTCAGATC | 0.0131
167 | GAAGGTAA | 0.181
168 | GAATCTCA | -0.121
169 | ACGCCGTC | 0.0439
170 | ACTAATGC | 0.108
171 | AAGAACTG | -0.0148
172 | AGCCTGAT | -0.168
